Results are given in words; binding and its absence hold for the method and conditions named. Binding seen in cells or lysates may run through a third protein. Some entries that bind do so weakly or less than the wild type.

Chains of the proteins cited; added tags and fusions are not shown.
UniProt P06748: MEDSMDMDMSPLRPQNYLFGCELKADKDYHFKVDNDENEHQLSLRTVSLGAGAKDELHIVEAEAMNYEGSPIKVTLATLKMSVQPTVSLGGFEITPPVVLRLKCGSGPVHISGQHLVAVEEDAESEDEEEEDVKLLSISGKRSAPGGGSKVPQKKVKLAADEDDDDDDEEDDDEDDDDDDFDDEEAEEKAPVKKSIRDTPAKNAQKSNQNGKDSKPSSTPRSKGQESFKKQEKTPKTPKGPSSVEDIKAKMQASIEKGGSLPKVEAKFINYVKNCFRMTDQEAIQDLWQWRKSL
UniProt P03372: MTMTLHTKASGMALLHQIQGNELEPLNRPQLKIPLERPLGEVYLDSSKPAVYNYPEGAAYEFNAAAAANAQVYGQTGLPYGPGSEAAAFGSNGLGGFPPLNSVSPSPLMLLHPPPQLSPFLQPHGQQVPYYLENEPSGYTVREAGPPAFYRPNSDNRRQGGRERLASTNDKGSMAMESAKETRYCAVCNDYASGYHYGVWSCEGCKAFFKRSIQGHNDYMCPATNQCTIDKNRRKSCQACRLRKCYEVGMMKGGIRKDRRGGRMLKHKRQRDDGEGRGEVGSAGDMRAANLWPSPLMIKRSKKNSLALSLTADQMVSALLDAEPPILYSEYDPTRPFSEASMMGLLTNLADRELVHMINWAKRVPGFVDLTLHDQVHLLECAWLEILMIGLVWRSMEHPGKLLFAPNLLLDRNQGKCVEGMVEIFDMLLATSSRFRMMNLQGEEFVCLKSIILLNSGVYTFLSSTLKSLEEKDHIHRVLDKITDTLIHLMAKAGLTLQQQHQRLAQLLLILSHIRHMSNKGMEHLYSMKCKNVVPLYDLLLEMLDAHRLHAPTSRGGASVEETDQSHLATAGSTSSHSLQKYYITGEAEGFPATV

Experiment [1] addresses T1, BASP1 (human (endogenous in MCF7 and T47D)) (UniProt P80723).
T1 sequence: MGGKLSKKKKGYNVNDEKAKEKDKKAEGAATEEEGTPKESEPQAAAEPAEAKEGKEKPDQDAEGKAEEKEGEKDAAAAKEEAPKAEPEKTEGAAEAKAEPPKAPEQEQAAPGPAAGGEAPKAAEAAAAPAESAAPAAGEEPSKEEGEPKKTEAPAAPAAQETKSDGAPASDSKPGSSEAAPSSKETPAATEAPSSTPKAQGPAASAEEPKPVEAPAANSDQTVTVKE
Kind of experiment: co-IP; immunoprecipitation of endogenous BASP1 or ERα (control IgG) from MCF7 nuclear extracts with Dynabeads; immunoblotting; cells also treated 30 min with 10 nM estradiol, 100 nM tamoxifen or vehicle. On the technique in general: Immunoblotting shows a protein as a band on a membrane.

In experiment [2] the target is T1, BASP1 (human (endogenous in MCF7 and T47D)). Description: co-IP; BASP1 immunoprecipitates from T47D cells, with and without tamoxifen treatment; probed for ERα.

Take “nucleophosmin (from UniProt P06748 1-294)”: in experiment [1], the binding entry is recorded as “binds”. Consider “oestrogen receptor α (from UniProt P03372 1-595)”, for which the binding entry in experiment [2] and in experiment [1] was “binds” each time.
